In US20050238685A1, “Method of binding a compound to a surface” (priority 2002, published 2005):
No constants are given. Whether binding was seen depends on the method and setting. Some binding calls cover weakened binding; strength is not graded here.

Key:
[1] = target: T1, SC4 hydrophobin of Schizophyllum commune (Schizophyllum commune) (UniProt P16934); experiment: enzyme on hydrophobin-coated sheets, washed; chromogenic assay
T1 sequence: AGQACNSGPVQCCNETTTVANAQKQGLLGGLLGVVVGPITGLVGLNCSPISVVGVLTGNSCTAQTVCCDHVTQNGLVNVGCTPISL

[2] = target: T2, SC3 hydrophobin of Schizophyllum commune (Schizophyllum commune) (UniProt P16933); experiment: as above
T2 sequence (looked up): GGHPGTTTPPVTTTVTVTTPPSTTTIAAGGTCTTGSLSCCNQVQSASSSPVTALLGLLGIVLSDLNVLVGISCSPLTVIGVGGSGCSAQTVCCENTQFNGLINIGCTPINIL

[3] = target: T2, SC3 hydrophobin of Schizophyllum commune (Schizophyllum commune); experiment: enzyme on SC3-coated TEFLON, rinsed; activity by spectrophotometry, constant after removal of the surface
[4] = target: T2, SC3 hydrophobin of Schizophyllum commune (Schizophyllum commune); experiment: enzyme on SC3-coated oil droplets, washed five times by centrifugation; substrate conversion

Measured: binding

B1: porcine liver esterase (enzyme, UniProt Q29550 19-566, looked up)
chain: GQPASPPVVDTAQGRVLGKYVSLEGLAQPVAVFLGVPFAKPPLGSLRFAPPQPAEPWSFVKNTTSYPPMCCQDPVVEQMTSDLFTNGKERLTLEFSEDCLYLNIYTPADLTKRGRLPVMVWIHGGGLVLGGAPMYDGVVLAAHENVVVVAIQYRLGIWGFFSTGDEHSRGNWGHLDQVAALHWVQENIANFGGDPGSVTIFGESAGGESVSVLVLSPLAKNLFHRAISESGVALTVALVRKDMKAAAKQIAVLAGCKTTTSAVFVHCLRQKSEDELLDLTLKMKFLTLDFHGDQRESHPFLPTVVDGVLLPKMPEEILAEKDFNTVPYIVGINKQEFGWLLPTMMGFPLSEGKLDQKTATSLLWKSYPIANIPEELTPVATDKYLGGTDDPVKKKDLFLDLMGDVVFGVPSVTVARQHRDAGAPTYMYEFQYRPSFSSDKKPKTVIGDHGDEIFSVFGFPLLKGDAPEEEVSLSKTVMKFWANFARSGNPNGEGLPHWPMYDQEEGYLQIGVNTQAAKRLKGEEVAFWNDLLSKEAAKKPPKIKHAEL
binds: [1] | [2] | [3] | [4]
